In the supplement of paper PMC12067093, “Discovery and optimisation of a covalent ligand for TRIM25 and its application to targeted protein ubiquitination” (Chemical Science, 2025):
The other results are listed elsewhere or left out.

By UniProt entry, the sequences of proteins in these tests, tags left out. Where a name states a change or a piece, a line headed by the entry shows the natural chain unless it says otherwise.
UniProt Q9UHB6: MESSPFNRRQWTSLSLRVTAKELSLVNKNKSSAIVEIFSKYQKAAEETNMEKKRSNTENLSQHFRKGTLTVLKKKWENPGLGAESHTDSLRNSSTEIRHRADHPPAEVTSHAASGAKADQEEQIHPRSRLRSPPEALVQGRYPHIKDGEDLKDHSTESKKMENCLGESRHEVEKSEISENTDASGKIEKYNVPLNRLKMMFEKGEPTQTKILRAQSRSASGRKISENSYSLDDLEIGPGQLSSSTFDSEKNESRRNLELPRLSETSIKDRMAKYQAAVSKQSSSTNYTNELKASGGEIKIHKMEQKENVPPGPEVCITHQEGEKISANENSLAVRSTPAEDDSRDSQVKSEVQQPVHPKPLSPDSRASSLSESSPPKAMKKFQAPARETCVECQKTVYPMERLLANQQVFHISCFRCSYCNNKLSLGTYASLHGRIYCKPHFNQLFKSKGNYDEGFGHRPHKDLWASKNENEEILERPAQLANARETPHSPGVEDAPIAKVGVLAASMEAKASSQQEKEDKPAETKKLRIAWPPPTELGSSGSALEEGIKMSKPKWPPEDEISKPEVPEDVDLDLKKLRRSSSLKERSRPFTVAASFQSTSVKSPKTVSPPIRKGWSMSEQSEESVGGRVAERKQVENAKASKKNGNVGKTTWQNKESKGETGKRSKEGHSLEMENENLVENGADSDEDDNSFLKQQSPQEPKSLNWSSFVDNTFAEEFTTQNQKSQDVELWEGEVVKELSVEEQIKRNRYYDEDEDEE
UniProt Q12907: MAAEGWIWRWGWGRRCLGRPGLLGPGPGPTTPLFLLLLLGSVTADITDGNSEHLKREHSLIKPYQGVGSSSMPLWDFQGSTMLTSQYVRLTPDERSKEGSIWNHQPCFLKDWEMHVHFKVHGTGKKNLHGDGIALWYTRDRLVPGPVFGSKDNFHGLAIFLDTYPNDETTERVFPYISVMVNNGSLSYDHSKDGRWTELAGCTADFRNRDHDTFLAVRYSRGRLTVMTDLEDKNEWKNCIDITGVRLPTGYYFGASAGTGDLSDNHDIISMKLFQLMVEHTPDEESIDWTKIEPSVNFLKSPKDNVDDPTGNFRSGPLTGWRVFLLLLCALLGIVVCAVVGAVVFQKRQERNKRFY
UniProt Q9H2I8: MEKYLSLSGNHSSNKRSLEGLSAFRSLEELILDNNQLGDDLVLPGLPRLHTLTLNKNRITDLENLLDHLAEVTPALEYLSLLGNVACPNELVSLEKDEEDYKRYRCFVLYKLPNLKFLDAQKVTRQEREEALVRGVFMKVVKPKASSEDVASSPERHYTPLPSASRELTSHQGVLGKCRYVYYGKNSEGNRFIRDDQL
UniProt Q96II8: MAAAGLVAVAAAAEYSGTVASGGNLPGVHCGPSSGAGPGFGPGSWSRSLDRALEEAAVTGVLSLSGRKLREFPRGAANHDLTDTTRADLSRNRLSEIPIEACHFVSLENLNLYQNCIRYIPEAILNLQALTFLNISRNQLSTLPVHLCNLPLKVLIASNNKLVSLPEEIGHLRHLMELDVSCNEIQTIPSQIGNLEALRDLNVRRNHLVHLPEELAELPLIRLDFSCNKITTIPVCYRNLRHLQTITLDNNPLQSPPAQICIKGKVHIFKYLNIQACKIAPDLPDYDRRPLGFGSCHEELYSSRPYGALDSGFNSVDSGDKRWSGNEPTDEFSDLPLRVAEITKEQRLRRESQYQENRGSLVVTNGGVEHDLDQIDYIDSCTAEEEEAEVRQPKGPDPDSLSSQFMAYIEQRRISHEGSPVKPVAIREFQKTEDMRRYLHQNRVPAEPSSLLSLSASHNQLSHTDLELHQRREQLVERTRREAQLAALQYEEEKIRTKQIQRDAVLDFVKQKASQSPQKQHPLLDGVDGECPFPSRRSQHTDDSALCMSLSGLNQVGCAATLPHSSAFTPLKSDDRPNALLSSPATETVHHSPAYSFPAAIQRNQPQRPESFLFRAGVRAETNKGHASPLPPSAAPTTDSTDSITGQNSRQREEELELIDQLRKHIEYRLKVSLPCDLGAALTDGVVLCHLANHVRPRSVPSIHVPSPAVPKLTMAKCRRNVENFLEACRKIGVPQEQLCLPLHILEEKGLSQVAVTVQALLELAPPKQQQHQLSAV
UniProt P18858, whole entry, looked up: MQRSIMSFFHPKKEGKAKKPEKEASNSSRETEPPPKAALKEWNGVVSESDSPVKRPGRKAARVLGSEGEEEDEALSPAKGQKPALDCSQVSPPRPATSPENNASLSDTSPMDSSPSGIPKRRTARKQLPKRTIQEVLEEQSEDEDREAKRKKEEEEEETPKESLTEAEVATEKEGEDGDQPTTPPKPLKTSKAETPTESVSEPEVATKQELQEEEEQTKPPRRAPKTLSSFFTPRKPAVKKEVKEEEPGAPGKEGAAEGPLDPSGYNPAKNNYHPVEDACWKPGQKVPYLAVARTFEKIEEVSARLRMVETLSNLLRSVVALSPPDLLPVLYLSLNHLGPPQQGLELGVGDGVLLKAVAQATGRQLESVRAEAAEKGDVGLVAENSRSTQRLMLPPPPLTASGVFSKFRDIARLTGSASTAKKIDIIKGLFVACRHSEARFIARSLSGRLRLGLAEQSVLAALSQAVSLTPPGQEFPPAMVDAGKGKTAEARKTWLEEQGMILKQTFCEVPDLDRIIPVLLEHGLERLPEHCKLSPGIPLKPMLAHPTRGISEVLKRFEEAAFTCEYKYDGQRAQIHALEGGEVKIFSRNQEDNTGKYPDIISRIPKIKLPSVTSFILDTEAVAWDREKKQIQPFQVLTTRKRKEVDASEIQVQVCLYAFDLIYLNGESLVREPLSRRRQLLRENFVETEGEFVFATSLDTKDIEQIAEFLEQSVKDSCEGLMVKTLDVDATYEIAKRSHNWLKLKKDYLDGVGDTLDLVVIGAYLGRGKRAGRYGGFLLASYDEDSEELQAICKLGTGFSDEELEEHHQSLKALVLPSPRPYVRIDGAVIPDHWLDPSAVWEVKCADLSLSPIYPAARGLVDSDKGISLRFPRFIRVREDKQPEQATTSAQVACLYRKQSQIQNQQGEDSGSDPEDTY
UniProt Q9UGP4: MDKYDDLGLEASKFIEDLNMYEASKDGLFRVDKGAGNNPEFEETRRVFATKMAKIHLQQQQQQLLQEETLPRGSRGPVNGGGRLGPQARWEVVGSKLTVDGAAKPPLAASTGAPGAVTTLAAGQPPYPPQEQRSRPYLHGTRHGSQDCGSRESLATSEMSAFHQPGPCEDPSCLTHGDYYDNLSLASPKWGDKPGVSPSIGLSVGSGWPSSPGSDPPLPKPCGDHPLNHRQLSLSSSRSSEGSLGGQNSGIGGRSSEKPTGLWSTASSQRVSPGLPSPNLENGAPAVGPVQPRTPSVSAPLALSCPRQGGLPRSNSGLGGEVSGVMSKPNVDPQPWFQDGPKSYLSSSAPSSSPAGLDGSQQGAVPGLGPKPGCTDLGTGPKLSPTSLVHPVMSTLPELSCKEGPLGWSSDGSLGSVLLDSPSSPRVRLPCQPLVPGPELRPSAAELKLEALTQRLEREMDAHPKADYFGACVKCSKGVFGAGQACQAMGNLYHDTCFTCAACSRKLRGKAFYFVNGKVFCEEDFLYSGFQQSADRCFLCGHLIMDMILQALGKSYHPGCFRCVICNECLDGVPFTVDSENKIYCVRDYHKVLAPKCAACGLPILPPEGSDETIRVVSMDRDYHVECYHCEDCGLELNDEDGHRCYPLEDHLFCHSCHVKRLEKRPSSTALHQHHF
UniProt P02545: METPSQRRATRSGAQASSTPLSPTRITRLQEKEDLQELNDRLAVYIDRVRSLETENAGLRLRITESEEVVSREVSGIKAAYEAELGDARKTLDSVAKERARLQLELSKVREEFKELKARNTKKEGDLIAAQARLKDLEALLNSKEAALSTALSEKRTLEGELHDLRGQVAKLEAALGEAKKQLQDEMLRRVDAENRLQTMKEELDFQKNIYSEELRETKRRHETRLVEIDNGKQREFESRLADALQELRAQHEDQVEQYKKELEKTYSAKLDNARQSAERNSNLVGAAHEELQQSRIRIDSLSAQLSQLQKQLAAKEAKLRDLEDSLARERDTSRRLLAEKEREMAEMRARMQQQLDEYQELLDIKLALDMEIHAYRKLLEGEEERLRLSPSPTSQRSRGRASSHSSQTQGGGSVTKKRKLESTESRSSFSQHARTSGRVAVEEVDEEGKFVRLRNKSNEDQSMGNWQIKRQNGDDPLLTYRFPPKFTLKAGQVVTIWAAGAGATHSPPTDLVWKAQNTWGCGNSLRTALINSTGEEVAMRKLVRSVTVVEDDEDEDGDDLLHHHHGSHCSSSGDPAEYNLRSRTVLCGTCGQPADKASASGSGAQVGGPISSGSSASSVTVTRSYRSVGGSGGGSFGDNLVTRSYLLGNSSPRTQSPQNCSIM
UniProt P20700: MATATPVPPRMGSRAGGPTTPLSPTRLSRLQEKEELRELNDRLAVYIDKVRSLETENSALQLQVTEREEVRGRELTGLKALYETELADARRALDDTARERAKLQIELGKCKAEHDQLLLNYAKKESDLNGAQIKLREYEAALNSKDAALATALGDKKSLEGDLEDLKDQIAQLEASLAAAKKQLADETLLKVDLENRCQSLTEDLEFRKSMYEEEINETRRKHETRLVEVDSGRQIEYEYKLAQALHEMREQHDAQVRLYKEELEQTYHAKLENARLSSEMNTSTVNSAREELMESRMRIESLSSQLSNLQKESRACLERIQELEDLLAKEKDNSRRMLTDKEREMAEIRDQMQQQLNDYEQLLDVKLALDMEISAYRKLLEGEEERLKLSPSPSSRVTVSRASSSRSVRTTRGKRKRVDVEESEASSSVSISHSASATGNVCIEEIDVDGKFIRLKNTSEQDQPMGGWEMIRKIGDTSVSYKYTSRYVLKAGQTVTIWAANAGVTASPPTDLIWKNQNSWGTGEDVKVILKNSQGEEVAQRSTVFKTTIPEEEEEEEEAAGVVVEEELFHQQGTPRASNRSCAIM
UniProt Q93052: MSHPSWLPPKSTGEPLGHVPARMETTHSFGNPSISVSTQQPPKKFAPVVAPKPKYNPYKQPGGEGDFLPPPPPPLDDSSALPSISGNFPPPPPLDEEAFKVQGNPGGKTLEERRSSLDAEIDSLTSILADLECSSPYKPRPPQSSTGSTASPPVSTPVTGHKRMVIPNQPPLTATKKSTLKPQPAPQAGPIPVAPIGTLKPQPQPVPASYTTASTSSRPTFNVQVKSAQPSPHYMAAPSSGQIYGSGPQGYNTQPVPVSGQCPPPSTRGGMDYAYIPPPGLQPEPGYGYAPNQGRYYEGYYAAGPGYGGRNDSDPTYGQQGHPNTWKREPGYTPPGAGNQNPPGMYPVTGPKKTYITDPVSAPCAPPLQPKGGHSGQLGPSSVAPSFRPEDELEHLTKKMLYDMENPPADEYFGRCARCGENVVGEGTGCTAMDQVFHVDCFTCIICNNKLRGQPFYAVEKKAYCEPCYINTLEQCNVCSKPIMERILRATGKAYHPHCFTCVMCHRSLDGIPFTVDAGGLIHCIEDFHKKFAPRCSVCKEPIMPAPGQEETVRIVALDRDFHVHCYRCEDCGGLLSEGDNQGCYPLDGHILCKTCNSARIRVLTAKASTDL

Compound: CC1Cc2ccccc2N1C(=O)C1CCCN(C1)C(=O)CCl (mixture of isomers) [TRIM25 ligand 11 (diastereomer mixture)]
Experiment: probe-labelled cysteine peptide fold change vs DMSO (competition) (log2 fold change); higher = less target engagement (more negative = stronger competition)
Conditions: THP-1, incubation time: 4 h
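Also: competitive chemoproteomic profiling in live THP-1 cells with an iodoacetamide desthiobiotin (IA-DTB) probe, comparing probe-labelled peptide intensities in compound-treated cells against DMSO-treated controls.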

Target	probe-labelled cysteine peptide fold change (10 µM)	probe-labelled cysteine peptide fold change (50 µM)
LIMA1_Q9UHB6_316_ENVPPGPEVCITHQEGEK (UniProt Q9UHB6)	-0.0648	-0.075
LMAN2_Q12907_107_SKEGSIWNHQPCFLK (UniProt Q12907)	-0.308	-0.535
LSS_P48449_410_MQGTNGSQIWDTAFAIQALLEAGGHHRPEFSSCLQK (UniProt P48449)	0.135	0.467
LGALS9_O00182_312+316_GQSFSVWILCEAHCLK (UniProt O00182)	0.132	0.0872
LRMDA_Q9H2I8_106_CFVLYK (UniProt Q9H2I8)	-0.00746	-0.00207
LRPPRC_P42704_413_EVQMHSFPLQFTLHCALLANK (UniProt P42704)	-0.0836	-0.0858
LRCH3_Q96II8_531_QHPLLDGVDGECPFPSR (UniProt Q96II8)	-0.153	-0.145
LIG1_P18858_895_QPEQATTSAQVACLYR (UniProt P18858)	-0.0444	0.163
LIMD1_Q9UGP4_305_TPSVSAPLALSCPR (UniProt Q9UGP4)	-0.0364	-0.237
LRPPRC_P42704_722_AKYESDMVTGGYAALINLCCR (UniProt P42704)	-0.101	-0.0584
LRPPRC_P42704_721_AKYESDMVTGGYAALINLCCR (UniProt P42704)	-0.0767	0.0184
LMNA_P02545_522_AQNTWGCGNSLR (UniProt P02545)	-0.104	-0.14
LMNB1_P20700_198_CQSLTEDLEFRK (UniProt P20700)	-0.05	-0.0171
LPP_Q93052_524_SLDGIPFTVDAGGLIHCIEDFHKK (UniProt Q93052)	-0.207	-0.131
